In PMC2688274:
These are yes or no findings as the source states them, for the method shown. For some of these results: In cells and extracts the contact can be indirect. Some entries that bind do so weakly or less than the wild type.

By UniProt entry, the sequences of proteins in these tests, tags left out. Where a name states a change or a piece, a line headed by the entry shows the natural chain unless it says otherwise.
UniProt O82794: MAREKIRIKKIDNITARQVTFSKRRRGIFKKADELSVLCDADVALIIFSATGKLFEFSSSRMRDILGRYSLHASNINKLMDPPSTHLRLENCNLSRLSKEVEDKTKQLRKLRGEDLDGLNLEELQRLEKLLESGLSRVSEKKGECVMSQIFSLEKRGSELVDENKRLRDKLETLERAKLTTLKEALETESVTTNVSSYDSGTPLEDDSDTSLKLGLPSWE
UniProt O64645: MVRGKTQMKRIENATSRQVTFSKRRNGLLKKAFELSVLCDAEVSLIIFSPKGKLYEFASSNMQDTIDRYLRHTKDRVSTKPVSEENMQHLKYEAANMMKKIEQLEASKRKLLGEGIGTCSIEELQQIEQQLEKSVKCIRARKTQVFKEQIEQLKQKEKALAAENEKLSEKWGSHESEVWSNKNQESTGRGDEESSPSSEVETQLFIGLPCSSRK
UniProt P17839: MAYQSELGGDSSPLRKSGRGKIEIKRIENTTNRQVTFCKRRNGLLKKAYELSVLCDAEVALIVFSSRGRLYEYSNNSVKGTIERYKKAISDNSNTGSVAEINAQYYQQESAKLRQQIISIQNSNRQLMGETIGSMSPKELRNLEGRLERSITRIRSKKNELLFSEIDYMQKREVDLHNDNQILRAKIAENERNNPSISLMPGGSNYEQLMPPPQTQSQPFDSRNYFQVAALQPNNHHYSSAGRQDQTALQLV
UniProt Q9SZJ6: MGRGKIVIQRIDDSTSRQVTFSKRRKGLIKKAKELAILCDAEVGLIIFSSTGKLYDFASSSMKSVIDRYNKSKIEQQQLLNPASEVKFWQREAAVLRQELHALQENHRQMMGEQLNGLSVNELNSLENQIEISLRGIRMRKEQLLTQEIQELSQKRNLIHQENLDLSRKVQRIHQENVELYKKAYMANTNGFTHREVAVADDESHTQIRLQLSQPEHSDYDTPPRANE
UniProt Q38840: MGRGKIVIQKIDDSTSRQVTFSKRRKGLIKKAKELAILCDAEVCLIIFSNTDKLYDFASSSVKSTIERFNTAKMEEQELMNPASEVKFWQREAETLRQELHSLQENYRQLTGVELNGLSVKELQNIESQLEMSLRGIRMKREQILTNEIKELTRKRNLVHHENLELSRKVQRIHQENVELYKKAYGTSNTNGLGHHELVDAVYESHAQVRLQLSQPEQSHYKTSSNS
UniProt P35631: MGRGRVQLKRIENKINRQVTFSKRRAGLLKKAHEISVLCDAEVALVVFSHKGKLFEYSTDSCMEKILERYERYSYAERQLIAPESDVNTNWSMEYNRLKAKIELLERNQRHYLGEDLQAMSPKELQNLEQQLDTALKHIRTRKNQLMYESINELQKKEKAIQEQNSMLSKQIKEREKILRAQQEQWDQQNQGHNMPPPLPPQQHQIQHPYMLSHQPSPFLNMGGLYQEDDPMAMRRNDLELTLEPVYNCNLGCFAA
UniProt O82743: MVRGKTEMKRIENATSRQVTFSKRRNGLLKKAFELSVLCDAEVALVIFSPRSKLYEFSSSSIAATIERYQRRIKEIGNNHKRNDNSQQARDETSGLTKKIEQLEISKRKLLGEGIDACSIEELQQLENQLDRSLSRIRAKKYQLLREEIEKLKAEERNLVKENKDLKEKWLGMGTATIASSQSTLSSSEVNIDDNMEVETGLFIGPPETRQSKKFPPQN
UniProt Q9FIS1: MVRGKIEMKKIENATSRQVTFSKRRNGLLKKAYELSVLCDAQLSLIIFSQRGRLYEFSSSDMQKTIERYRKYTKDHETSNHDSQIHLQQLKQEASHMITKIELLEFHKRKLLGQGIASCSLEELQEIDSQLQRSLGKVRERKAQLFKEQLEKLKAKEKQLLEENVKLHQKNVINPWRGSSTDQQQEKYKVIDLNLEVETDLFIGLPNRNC
UniProt Q38838: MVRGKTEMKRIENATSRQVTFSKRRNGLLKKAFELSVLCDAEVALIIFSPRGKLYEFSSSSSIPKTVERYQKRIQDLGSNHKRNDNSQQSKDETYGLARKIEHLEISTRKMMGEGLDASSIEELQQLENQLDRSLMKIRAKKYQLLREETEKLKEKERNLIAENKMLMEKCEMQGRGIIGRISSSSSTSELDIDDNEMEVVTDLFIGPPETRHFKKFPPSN

Legend:
[1] = biological target: AGL24 with SOC1 (partners in the yeast three-hybrid complexes) (Arabidopsis thaliana) (UniProt O82794+O64645); test: yeast three-hybrid; yeast PJ69-4; dimer clones (one partner fused to GAL4-AD, the other to a nuclear localization signal only, pARC352) mated with single proteins fused to GAL4-BD; growth on -L -W -A -H with 1, 5 or 10 mM 3-AT at 20°C for 7 days, and LacZ assay
[2] = biological target: SEP3-CFP / SEP3-YFP (Arabidopsis thaliana) (UniProt O22456); test: FRET or BRET; FRET-FLIM in Arabidopsis leaf protoplasts; carboxy-terminal CFP (donor) and YFP (acceptor) fusions; donor lifetime measured on the central part of the nucleus, at least ten cells a combination in three experiments
[3] = biological target: AG with SEP3ΔC1 (dimer in the yeast three-hybrid test) (Arabidopsis thaliana) (UniProt P17839+O22456); test: yeast three-hybrid; yeast PJ69-4; dimer clones (one partner fused to GAL4-AD, the other to a nuclear localization signal only, pARC352) mated with single proteins fused to GAL4-BD; growth on -L -W -A -H with 1, 5 or 10 mM 3-AT at 20°C for 7 days, and LacZ assay
[4] = biological target: AG with SEP3ΔC2 (dimer in the yeast three-hybrid test) (Arabidopsis thaliana) (UniProt P17839+O22456); test: as above
[5] = biological target: SEP3ΔC2 (…3 lacking 67 amino acids at its carboxyl end) (Arabidopsis thaliana) (UniProt O22456); test: two-hybrid; yeast; truncated SEP3 proteins fused to GAL4-BD tested for dimerisation with AG
[6] = biological target: SEP3ΔC1 (…3 lacking the last 80 amino acids of the carboxyl terminus) (Arabidopsis thaliana) (UniProt O22456); test: as above

binding [1] | Substance | also measured
binds | AGL21 (from UniProt Q9SZJ6 1-228) | 
binds | AGL17 (from UniProt Q38840 1-227) | 
 | AP1-CFP (from UniProt P35631 1-256) | binding [2]: binds
binds | AGL19 (from UniProt O82743 1-219) | 
binds | AGL42 (from UniProt Q9FIS1 1-210) | 
 | … (STK) (from UniProt Q38836 1-230) | binding [3]: no binding; binding [4]: binds
 | AGAMOUS (AG) (from UniProt P17839 1-252) | binding [5]: binds; binding [6]: binds
binds | AGL14 (from UniProt Q38838 1-221) | 
